Experimental data as given in the supplement of paper PMC9233669.
Variants at the floor of the assay are shown more often than the library holds them.

What was measured:
[1] = system: biotinyl-Ile-oxazolone; experiment: self-aminoacylation, catalytic enhancement (BIO) (fold over background); higher = more active; k-Seq, kA / k0A0; sequences stand for … in GGGAAUGGAUCCACAUCUACGAAUUC…UUCACUGCAGACUUGACGAAGCUG
Summary of the method: (§1)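 Mutagenized RNA pools (0.43 μM; 21-nt variable region) were treated with 2–1250 μM of each biotinyl-aminoacyl-oxazolone. Conditions were 50 μL HEPES/NaCl/KCl/MgCl2/CaCl2 buffer, 5% acetonitrile, pH 6.9–7.0, room temperature, 90 minutes. Catalytic enhancement, the median kA relative to the uncatalyzed rate, was derived from streptavidin capture, qPCR and Illumina sequencing.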

[2] = system: biotinyl-Trp-oxazolone; experiment: self-aminoacylation, catalytic enhancement (BWO) (fold over background); higher = more active; k-Seq, kA / k0A0; sequences stand for … in GGGAAUGGAUCCACAUCUACGAAUUC…UUCACUGCAGACUUGACGAAGCUG
Summary of the method: as §1

[3] = system: biotinyl-Met-oxazolone; experiment: self-aminoacylation, catalytic enhancement (BMO) (fold over background); higher = more active; k-Seq, kA / k0A0; sequences stand for … in GGGAAUGGAUCCACAUCUACGAAUUC…UUCACUGCAGACUUGACGAAGCUG
Summary of the method: as §1

[4] = system: biotinyl-Leu-oxazolone; experiment: self-aminoacylation, catalytic enhancement (BLO) (fold over background); higher = more active; k-Seq, kA / k0A0; sequences stand for … in GGGAAUGGAUCCACAUCUACGAAUUC…UUCACUGCAGACUUGACGAAGCUG
Summary of the method: as §1

[5] = system: biotinyl-Phe-oxazolone; experiment: self-aminoacylation, catalytic enhancement (BFO) (fold over background); higher = more active; k-Seq, kA / k0A0; sequences stand for … in GGGAAUGGAUCCACAUCUACGAAUUC…UUCACUGCAGACUUGACGAAGCUG
Summary of the method: as §1

[6] = system: biotinyl-Val-oxazolone; experiment: self-aminoacylation, catalytic enhancement (BVO) (fold over background); higher = more active; k-Seq, kA / k0A0; sequences stand for … in GGGAAUGGAUCCACAUCUACGAAUUC…UUCACUGCAGACUUGACGAAGCUG
Summary of the method: as §1

Sequence	self-aminoacylation [1]	self-aminoacylation [2]	self-aminoacylation [3]	self-aminoacylation [4]	self-aminoacylation [5]	self-aminoacylation [6]
CUACUACGAACAAUCGGUCUG [Fam1A.1 aminoacylation ribozyme variant]	0.832	0.509	0.822	0.984	0.839	0.769
CUACUCCAAAUAAUCGGUCUG [Fam1A.1 aminoacylation ribozyme variant]	0.789	1.04	0.693	0.643	1.36	0.818
CUACUCCAAGCAAUCGGUCUG [Fam1A.1 aminoacylation ribozyme variant]	0.751	0.955	0.959	0.835	1.32	1
CUACUGCAAACAAUCAGUCUG [Fam1A.1 aminoacylation ribozyme variant]	0.633	0.47	0.546	0.538	0.941	0.546
CUACUGCAAACCAUCGGUCUG [Fam1A.1 aminoacylation ribozyme variant]	0.93	0.718	0.798	0.574	1.23	1.09
CUACUGCAAAUAAUCGGUCUG [Fam1A.1 aminoacylation ribozyme variant]	0.756	0.665	0.717	0.588	1.01	0.657
CUACUUAAAACGAUCGGUCUG [Fam1A.1 aminoacylation ribozyme variant]	0.935	0.57	1.04	0.775	0.67	0.868
CUACUUAUAACAAUCGGUCUG [Fam1A.1 aminoacylation ribozyme variant]	0.807	0.723	0.783	0.856	0.809	0.877
CUACUUCAAACAACAGGUCUG [Fam1A.1 aminoacylation ribozyme variant]	0.632	0.41	0.551	0.512	0.54	0.74
CUACUUCAAACAACCGGUCAG [Fam1A.1 aminoacylation ribozyme variant]	1.03	0.98	0.952	0.811	0.921	0.974
CUACUUCAAACAACCGGUUUG [Fam1A.1 aminoacylation ribozyme variant]	0.897	0.686	0.851	0.992	0.448	0.985
CUACUUCAAACAAGAGGUCUG [Fam1A.1 aminoacylation ribozyme variant]	0.942	0.528	1	0.758	0.94	0.945
CUACUUCAAACAAGCGAUCUG [Fam1A.1 aminoacylation ribozyme variant]	0.685	0.311	0.566	0.567	0.625	0.715
CUACUUCAAACAAGCGGUGUG [Fam1A.1 aminoacylation ribozyme variant]	1.15	0.446	0.909	1.14	0.943	1.07
CUACUUCAAACAAUAGAUCUG [Fam1A.1 aminoacylation ribozyme variant]	0.738	0.476	0.826	0.6	0.847	0.643
CUACUUCAAACAAUCGAUAUG [Fam1A.1 aminoacylation ribozyme variant]	0.603	0.49	0.549	0.454	0.824	0.606
CUACUUCAAACAAUCGAUCCG [Fam1A.1 aminoacylation ribozyme variant]	0.595	0.499	0.572	0.516	1	0.612
CUACUUCAAACAAUCGGCCUC [Fam1A.1 aminoacylation ribozyme variant]	1.8	7.78	1.63	1.89	11.8	1.88
CUACUUCAAACAAUCGGGCUA [Fam1A.1 aminoacylation ribozyme variant]	1.08	0.786	0.863	0.687	1.46	0.854
CUACUUCAAACAAUCGGUAGG [Fam1A.1 aminoacylation ribozyme variant]	0.683	0.564	0.696	0.6	1.17	0.652
CUACUUCAAACAAUCGGUCGU [Fam1A.1 aminoacylation ribozyme variant]	1.1	10.3	1.29	1.58	16.3	1.29
CUACUUCAAACAAUCGGUGUU [Fam1A.1 aminoacylation ribozyme variant]	1.23	1.56	1.59	1.84	1.88	1.38
CUACUUCAAACAAUCGUUCUA [Fam1A.1 aminoacylation ribozyme variant]	0.582	0.631	0.545	0.559	1.08	0.801
CUACUUCAAACAAUGAGUCUG [Fam1A.1 aminoacylation ribozyme variant]	0.713	0.459	0.8	0.695	1.09	0.753
CUACUUCAAACAAUGGGUCAG [Fam1A.1 aminoacylation ribozyme variant]	0.6	0.5	0.648	0.651	0.92	0.589
